Reference: patent US20130217613A1
These are yes or no findings as the source states them, for the method shown. For some of these results: Binding seen in cells or lysates may run through a third protein. Some entries that bind do so weakly or less than the wild type. Tags and fused reporters may be left off the sequences shown.

Protein sequences, listed by entry. Tags and fused reporters are not part of them. Lines headed by an entry give the natural chain unless they say otherwise; changes in a name come on top. Chains listed by the source or under a name are the forms on record and can include a tag or linker. Residues count along the entry.
UniProt Q9C005: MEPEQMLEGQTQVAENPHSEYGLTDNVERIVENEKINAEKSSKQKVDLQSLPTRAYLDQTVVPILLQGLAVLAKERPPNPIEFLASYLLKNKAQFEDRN
His-tagged human Dpy-30 domain only (Dpy-30 45-99): residues 45-99 of Q9C005
His-Dpy-30 D/D (a.a. #49-99): residues 49-99 of Q9C005

Assays:
[1] = target: His-tagged human Dpy-30 protein (full length) (human) (UniProt Q9C005); assay: Ni-NTA pulldown of co-expressed proteins
[2] = target: His-tagged human Dpy-30 protein (full length) (human) (UniProt Q9C005); assay: Ni-NTA pulldown (discussion of Example 1)
[3] = target: His-tagged human Dpy-30 domain only (Dpy-30 45-99) (human) (UniProt Q9C005); assay: Ni-NTA pulldown with Dpy-30 45-99, GST western blot
[4] = target: His-tagged human Dpy-30 domain only (Dpy-30 45-99) (human) (UniProt Q9C005); assay: Ni-NTA pulldown of co-expressed proteins, GST western blot
[5] = target: His-tagged human Dpy-30 protein (full length) (human) (UniProt Q9C005); assay: as above
[6] = target: His-tagged human Dpy-30 protein (full length) (human) (UniProt Q9C005); assay: Ni-NTA pulldown, Coomassie gel
[7] = target: His-Dpy-30 D/D (a.a. #49-99) (human) (UniProt Q9C005); assay: Ni-NTA pulldown (discussion of Example 2)
[8] = target: His-tagged human Dpy-30 protein (full length) (human) (UniProt Q9C005); assay: Ni-NTA pulldown; Table 3 token for evidently co-purified with Dpy-30

Measured: binding

PWLKEQAIGYLARGVVARRVVDKLVEDAA (peptide, not shown: a dimerising Fc or GST) [GST-tagged RSP3 280-308 (contains the Dpy-30-binding amphipathic helix AHD)]
binds: [1] | [2] | [3] | [4] | [5]

PMSDMGWGAVVKHTLADVLYHVETEVDGRRS (peptide, not shown: a dimerising Fc or GST; large carriers; small tags and cut ends) [GST-hAsh2 593-623 E604K variant]
binds: [6] | [7] | [8]

PWLKEQAIGYLARGVVARRVVDKLVEDAAAALAANRS (peptide, not shown: a dimerising Fc or GST) [GST-tagged RSP3 280-316]
binds: [3] | [5]
